From patent US20130225670A1, “Methods of Treating Asthma Using Statins” (Children's Hospital & Research Center Oakland, priority 2012, published 2013)
At least one structure is not confirmed: it was looked up by name or label, or the drawing left a doubt.

How the values were obtained:
[1] = system: mir-148a, 148b or 152 transcript levels; test: mir transcript level change after simvastatin in lymphoblastoid cell lines (quantitative real-time PCR); type: cell-based, human; conditions: CAP LCLs (n=48), 2.0 pM simvastatin vs sham buffer, 24 hours, p<0.05
[2] = system: mir-148a, 148b or 152 transcript levels; test: mir transcript level change after simvastatin in HepG2 cell lines (quantitative real-time PCR); type: cell-based, human; conditions: HepG2 cell lines (n=6), 2.0 pM simvastatin vs sham buffer, 24 hours, p<0.05

CCC(C)(C)C(=O)O[C@H]1C[C@@H](C)C=C2C=C[C@H](C)[C@H](CC[C@@H]3C[C@@H](O)CC(=O)O3)[C@H]21 [simvastatin]
up-regulated: change in mir-148b transcript level [1] | change in mir-152 transcript level [1] | change in mir-148b transcript level [2] | change in mir-152 transcript level [2]
